The experiment concerns the target T1, FLAG-Strep-Med19 (endogenous 3xFLAG/Twin Strep tagged Med19) (rat (endogenous in INS-1)) (UniProt D3ZAP1).
T1 sequence: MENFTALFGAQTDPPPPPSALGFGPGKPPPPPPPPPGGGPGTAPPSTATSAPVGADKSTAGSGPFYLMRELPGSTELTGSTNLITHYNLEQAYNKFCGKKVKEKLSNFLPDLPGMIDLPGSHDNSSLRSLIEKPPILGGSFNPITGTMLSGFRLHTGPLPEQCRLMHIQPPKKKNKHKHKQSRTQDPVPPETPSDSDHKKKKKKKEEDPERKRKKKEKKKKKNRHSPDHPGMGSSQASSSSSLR
Briefly: co-IP; anti-FLAG (M2 agarose) immunoprecipitates of endogenous FLAG-Strep-Med19 from INS-1 extracts, Med14 WT and Med14 S983A knock-in lines; immunoblot; cells treated with FSK, H-89 or Ex-4 (10 nM) as indicated. (In general: A western blot detects proteins with antibodies after separation by electrophoresis.)

No constants are given. Whether binding was seen depends on the method and setting. Binding seen in cells or lysates may run through a third protein. Binding calls can cover weak binding; strength is not graded here. Tags and fused reporters may be left off the sequences shown.

Take Med12 (rat (endogenous in INS-1)): the binding entry is “binds”.

For the substance Med30 (rat (endogenous in INS-1)), the binding entry was “binds”.
